Some of the results follow.
Molecular target: OsWRKY34 (Oryza sativa, UniProt Q0JBA9 1-250)
Assay: protein-binding microarray (RPBM); PBS, 2% BSA, 51.3 ng/ul salmon testes DNA, 50 uM zinc acetate, 200 nM TF, 25 C, 1 h; high values mean tight binding
Details: protein: recombinant; tags: N-terminal polyhistidine and DsRed monomer fusion (pET32a); label: CyDye5-dUTP incorporated in the synthesized complementary strand; 3' TTTTT single-stranded linker to array surface; dsDNA, one strand shown
Procedure, shortened: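 Ni–NTA purification followed expression in E. coli BL21-CodonPlus of transcription factors fused N-terminally to a polyhistidine tag and DsRed. At 200 nM in PBS with 2% BSA, salmon testes DNA and 50 µM zinc acetate, the protein was incubated for 1 h at 25 °C with a custom Agilent array that had been primer-extended with Cy5-dUTP and blocked with 2% BSA. After washing, the array was read on an Axon 4000B scanner. The binding signal is per-feature fluorescence intensity in arbitrary units.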

By UniProt entry, the sequences of proteins in these tests, tags left out.
UniProt Q0JBA9, entry or part of it: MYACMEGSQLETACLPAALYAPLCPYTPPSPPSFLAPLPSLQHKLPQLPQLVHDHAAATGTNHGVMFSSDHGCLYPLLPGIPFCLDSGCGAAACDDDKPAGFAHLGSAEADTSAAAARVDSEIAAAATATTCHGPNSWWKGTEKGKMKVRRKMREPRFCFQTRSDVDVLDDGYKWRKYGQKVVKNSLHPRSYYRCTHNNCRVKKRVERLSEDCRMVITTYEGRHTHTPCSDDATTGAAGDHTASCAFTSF

| Sequence | binding signal |
| --- | --- |
| AATGCTGAGTTTGAATTGCGTCCTTATCCACAATACCAGTCGGAGTCACCTAGTGCAG | 10500 fluorescence intensity (a.u.) |
| ACTATTTACGTTTCTGGTTACCTAGGGCTTTTGCTACATTCGGAGTCACCTAGTGCAG | 11700 fluorescence intensity (a.u.) |
| CGACTGCCACACTTTATTGATTTAACCGGTGTAGTTTAAACGGAGTCACCTAGTGCAG | 8060 fluorescence intensity (a.u.) |
| GGTCACATATCTGATAGTTTTGAGGGGAAAAAAATACTTACGGAGTCACCTAGTGCAG | 9730 fluorescence intensity (a.u.) |
| TGGAGTTATTCGTTTCTCTGTTGCCAAATGTATTGCTTAACGGAGTCACCTAGTGCAG | 9270 fluorescence intensity (a.u.) |
| GAGTTATCCAGATTCATTGTACTACGACATGTTACATTTTCGGAGTCACCTAGTGCAG | 8520 fluorescence intensity (a.u.) |
| GTTGGTTGGCTGTTCCTTGCTTTCATCCAGCTAGCTACTGCGGAGTCACCTAGTGCAG | 10500 fluorescence intensity (a.u.) |
| AGTAGTATTTTTTTGAGGCAAAGGAACGAAGTAGTATAACCGGAGTCACCTAGTGCAG | 8790 fluorescence intensity (a.u.) |
| ACGCTCGCCGCCGCTTCCTGTACTGTCTTTACCCAATCCTCGGAGTCACCTAGTGCAG | 9010 fluorescence intensity (a.u.) |
| CCAGCCGCCGCCAACCGCCACACATGCCTAGCCGCCGCCGCGGAGTCACCTAGTGCAG | 8220 fluorescence intensity (a.u.) |
| GACGAGACCGACGCCGTCATCCTCCTTCTCACGCTACCATCGGAGTCACCTAGTGCAG | 8040 fluorescence intensity (a.u.) |
| TGTTTTTCTAATGGTCTCACGAATGGTAATTTCTGTTTTCCGGAGTCACCTAGTGCAG | 9980 fluorescence intensity (a.u.) |
| TCAAACCGTCCCGCGCCGCCGCGGCCGCTGCAACCCGCGCCGGAGTCACCTAGTGCAG | 8260 fluorescence intensity (a.u.) |
| TATGATTTGTGTTAGTTGACTTCTAATTTCTTGAGAGATACGGAGTCACCTAGTGCAG | 8610 fluorescence intensity (a.u.) |
| GTACACACACACTACACACACTACGCTTCTACGCTACACACGGAGTCACCTAGTGCAG | 8280 fluorescence intensity (a.u.) |
| TAGCTCGTCTACTCCTAGCTCTCTCGTCCAATCCGGCCGGCGGAGTCACCTAGTGCAG | 8680 fluorescence intensity (a.u.) |
| ATTTTGTTACATCATCATCAACCGATTACCTTTATATCATCGGAGTCACCTAGTGCAG | 9070 fluorescence intensity (a.u.) |
| TTCATGTATCTGTAATTTGATGATGCTGGATTTCTACTATCGGAGTCACCTAGTGCAG | 8420 fluorescence intensity (a.u.) |
| ACCCGTACCTGTCCAGCCACGTTTGGCGTAACACCTGAACCGGAGTCACCTAGTGCAG | 10200 fluorescence intensity (a.u.) |
| GATCTCTTGCCCGTACACCTCGTGCTCCTCCTCGTCCATGCGGAGTCACCTAGTGCAG | 8410 fluorescence intensity (a.u.) |
| GCAACCAGTACACCACATTAACTTAATTCACACCTAGCTTCGGAGTCACCTAGTGCAG | 8100 fluorescence intensity (a.u.) |
| TGTGTTTGAGGGGTGTGTATGTGTTGTGTTGTAGGTCAACCGGAGTCACCTAGTGCAG | 9510 fluorescence intensity (a.u.) |
| TTTTATTCCATAATCTGGTTGGGATAATTGCTTTCTGCTGCGGAGTCACCTAGTGCAG | 8130 fluorescence intensity (a.u.) |
| AGAAGGGATAAGATAGGGCGGGGAGGACGAGGTGCTGCTGCGGAGTCACCTAGTGCAG | 8150 fluorescence intensity (a.u.) |
| ATGACTCTGTACTCTATTTCTAATATTTCTTATTTTTTTACGGAGTCACCTAGTGCAG | 11600 fluorescence intensity (a.u.) |
| CCGTCTCCATCGCGCACTGCCCTGTCCCTCTCTCCTCCTCCGGAGTCACCTAGTGCAG | 11500 fluorescence intensity (a.u.) |
| CAACCTGCTCCGCTCCTTGCGCTCTCCCAATCCCGCATCTCGGAGTCACCTAGTGCAG | 8890 fluorescence intensity (a.u.) |

Part of the list above, reformatted:
Sequence | binding signal
AATGCTGAGTTTGAATTGCGTCCTTATCCACAATACCAGTCGGAGTCACCTAGTGCAG | 10500 fluorescence intensity (a.u.)
ACTATTTACGTTTCTGGTTACCTAGGGCTTTTGCTACATTCGGAGTCACCTAGTGCAG | 11700 fluorescence intensity (a.u.)
GTTGGTTGGCTGTTCCTTGCTTTCATCCAGCTAGCTACTGCGGAGTCACCTAGTGCAG | 10500 fluorescence intensity (a.u.)
AGTAGTATTTTTTTGAGGCAAAGGAACGAAGTAGTATAACCGGAGTCACCTAGTGCAG | 8790 fluorescence intensity (a.u.)
ACGCTCGCCGCCGCTTCCTGTACTGTCTTTACCCAATCCTCGGAGTCACCTAGTGCAG | 9010 fluorescence intensity (a.u.)
GTACACACACACTACACACACTACGCTTCTACGCTACACACGGAGTCACCTAGTGCAG | 8280 fluorescence intensity (a.u.)
TTCATGTATCTGTAATTTGATGATGCTGGATTTCTACTATCGGAGTCACCTAGTGCAG | 8420 fluorescence intensity (a.u.)
GATCTCTTGCCCGTACACCTCGTGCTCCTCCTCGTCCATGCGGAGTCACCTAGTGCAG | 8410 fluorescence intensity (a.u.)
TGTGTTTGAGGGGTGTGTATGTGTTGTGTTGTAGGTCAACCGGAGTCACCTAGTGCAG | 9510 fluorescence intensity (a.u.)
TTTTATTCCATAATCTGGTTGGGATAATTGCTTTCTGCTGCGGAGTCACCTAGTGCAG | 8130 fluorescence intensity (a.u.)
ATGACTCTGTACTCTATTTCTAATATTTCTTATTTTTTTACGGAGTCACCTAGTGCAG | 11600 fluorescence intensity (a.u.)

Remaining list, next part.

| Sequence | binding signal |
| --- | --- |
| CAATCACTTATAAAATTTTTTAGCTAAACTGCACATACCTCGGAGTCACCTAGTGCAG | 9220 fluorescence intensity (a.u.) |
| ACACCATCCCCATCCTACGTCGTCGCCGCCGCCGAAGTCCCGGAGTCACCTAGTGCAG | 10500 fluorescence intensity (a.u.) |
| CATGCACCGGGACAATCATGCTTTGGCTGTACTACCGCGGCGGAGTCACCTAGTGCAG | 8060 fluorescence intensity (a.u.) |
| ACATGCTCAATGATAGATCTAATTAAGCTTTTCATTGATTCGGAGTCACCTAGTGCAG | 8210 fluorescence intensity (a.u.) |
| ATCGCACTCTATGCCTAATCGTTTTACCCTTTTCACCAAACGGAGTCACCTAGTGCAG | 12200 fluorescence intensity (a.u.) |
| CTTTTGTTTTTCTTTTTTTTACCTTTCCTTTCATCTCTTCCGGAGTCACCTAGTGCAG | 10200 fluorescence intensity (a.u.) |
| CTCCGTCTGCACGCCGCTCAATCTCCAGGTACATATCGATCGGAGTCACCTAGTGCAG | 8670 fluorescence intensity (a.u.) |
| GTCTTCCTCCACGCTTCTGCTTGCACTTATCTCTATGTCACGGAGTCACCTAGTGCAG | 8780 fluorescence intensity (a.u.) |
| GCTAGTGGGTTGCAACTATTCATTCACAAAACGTTCATTGCGGAGTCACCTAGTGCAG | 8290 fluorescence intensity (a.u.) |
| TGCTCCTTTCCTCCTTGTGCTCTACCTGTGTTCACGGAAACGGAGTCACCTAGTGCAG | 8200 fluorescence intensity (a.u.) |
| CGGCTCCGGCCGCTAGCAGTTGCTTCTTTTTCCCACATTCCGGAGTCACCTAGTGCAG | 10800 fluorescence intensity (a.u.) |
| CGGAACCGCTCCTCGAGAAGCTCTCGAATTCCTCGTCGTCCGGAGTCACCTAGTGCAG | 9310 fluorescence intensity (a.u.) |
| CCGGGCCCCGCCGCTTTGCCACCCAAATCTCCCGCCATTTCGGAGTCACCTAGTGCAG | 9060 fluorescence intensity (a.u.) |
| GGATTTCCACGTAAAATTCGTGTCTCCGTTGTGCATCTATCGGAGTCACCTAGTGCAG | 8150 fluorescence intensity (a.u.) |
| AATATTCTTCACTGCCATGGATCAATCATATGATCCTTTGCGGAGTCACCTAGTGCAG | 8260 fluorescence intensity (a.u.) |
| CTTTCCTTTCTGTCGCGGCCAACTCCTCGCCACCACGCCGCGGAGTCACCTAGTGCAG | 9020 fluorescence intensity (a.u.) |
| GCGCAAGCCCAGCCGCCTCGTCGTGTTCGCGTTCGTCGCGCGGAGTCACCTAGTGCAG | 8820 fluorescence intensity (a.u.) |
| AAATAGCCACATTTCTTACGCGTTGCAATTCTATCATCTCCGGAGTCACCTAGTGCAG | 9400 fluorescence intensity (a.u.) |
| TTGGCAGCACTTTTGCAATTGCAATCTCCATTGTTTTGTCCGGAGTCACCTAGTGCAG | 12700 fluorescence intensity (a.u.) |
| ATTGTTTAAGTTTATTATTAGCCTAGCGGGAGGGGTGTTTCGGAGTCACCTAGTGCAG | 9560 fluorescence intensity (a.u.) |
| GATCTTGAGAAAGGGGCCGGCGGGGTGGGTGTGGAAGACTCGGAGTCACCTAGTGCAG | 11700 fluorescence intensity (a.u.) |
| CCCACCGTTTCTCTCCCTTGCCGGCTACTGGCCATGGCTTCGGAGTCACCTAGTGCAG | 9060 fluorescence intensity (a.u.) |
| GAATTTGCACGGTCTCGATCTTGTGTTGCTACTCCACTCCCGGAGTCACCTAGTGCAG | 14700 fluorescence intensity (a.u.) |
| TATATTTATTTGACCGTAACGTCTTCCCCATAGCAGAGTGCGGAGTCACCTAGTGCAG | 8130 fluorescence intensity (a.u.) |
| TTTTATACTTCCATAGATGTTATGTGTGTTCGATGCTCACCGGAGTCACCTAGTGCAG | 8030 fluorescence intensity (a.u.) |
| ATGCATCATCATCATCATCATCATCCTCCTCTTTGACCCGCGGAGTCACCTAGTGCAG | 8320 fluorescence intensity (a.u.) |
| CGCGCGCGCGCCCACACACACACTCACATTCTCTCTGCACCGGAGTCACCTAGTGCAG | 9450 fluorescence intensity (a.u.) |

From publication PMC7819943, “Rice protein-binding microarrays: a tool to detect cis-acting elements near promoter regions in rice”
